Reference: PMC4268694
These are yes or no findings as the source states them, for the method shown. Binding seen in cells or lysates may run through a third protein. Some results given as binding are weak or reduced against the parent protein; the word gives no strength. For part of these data: Where a sequence is shown, tags or fusion partners need not be part of it.

By UniProt entry, the sequences of proteins in these tests, tags left out.
UniProt Q13535: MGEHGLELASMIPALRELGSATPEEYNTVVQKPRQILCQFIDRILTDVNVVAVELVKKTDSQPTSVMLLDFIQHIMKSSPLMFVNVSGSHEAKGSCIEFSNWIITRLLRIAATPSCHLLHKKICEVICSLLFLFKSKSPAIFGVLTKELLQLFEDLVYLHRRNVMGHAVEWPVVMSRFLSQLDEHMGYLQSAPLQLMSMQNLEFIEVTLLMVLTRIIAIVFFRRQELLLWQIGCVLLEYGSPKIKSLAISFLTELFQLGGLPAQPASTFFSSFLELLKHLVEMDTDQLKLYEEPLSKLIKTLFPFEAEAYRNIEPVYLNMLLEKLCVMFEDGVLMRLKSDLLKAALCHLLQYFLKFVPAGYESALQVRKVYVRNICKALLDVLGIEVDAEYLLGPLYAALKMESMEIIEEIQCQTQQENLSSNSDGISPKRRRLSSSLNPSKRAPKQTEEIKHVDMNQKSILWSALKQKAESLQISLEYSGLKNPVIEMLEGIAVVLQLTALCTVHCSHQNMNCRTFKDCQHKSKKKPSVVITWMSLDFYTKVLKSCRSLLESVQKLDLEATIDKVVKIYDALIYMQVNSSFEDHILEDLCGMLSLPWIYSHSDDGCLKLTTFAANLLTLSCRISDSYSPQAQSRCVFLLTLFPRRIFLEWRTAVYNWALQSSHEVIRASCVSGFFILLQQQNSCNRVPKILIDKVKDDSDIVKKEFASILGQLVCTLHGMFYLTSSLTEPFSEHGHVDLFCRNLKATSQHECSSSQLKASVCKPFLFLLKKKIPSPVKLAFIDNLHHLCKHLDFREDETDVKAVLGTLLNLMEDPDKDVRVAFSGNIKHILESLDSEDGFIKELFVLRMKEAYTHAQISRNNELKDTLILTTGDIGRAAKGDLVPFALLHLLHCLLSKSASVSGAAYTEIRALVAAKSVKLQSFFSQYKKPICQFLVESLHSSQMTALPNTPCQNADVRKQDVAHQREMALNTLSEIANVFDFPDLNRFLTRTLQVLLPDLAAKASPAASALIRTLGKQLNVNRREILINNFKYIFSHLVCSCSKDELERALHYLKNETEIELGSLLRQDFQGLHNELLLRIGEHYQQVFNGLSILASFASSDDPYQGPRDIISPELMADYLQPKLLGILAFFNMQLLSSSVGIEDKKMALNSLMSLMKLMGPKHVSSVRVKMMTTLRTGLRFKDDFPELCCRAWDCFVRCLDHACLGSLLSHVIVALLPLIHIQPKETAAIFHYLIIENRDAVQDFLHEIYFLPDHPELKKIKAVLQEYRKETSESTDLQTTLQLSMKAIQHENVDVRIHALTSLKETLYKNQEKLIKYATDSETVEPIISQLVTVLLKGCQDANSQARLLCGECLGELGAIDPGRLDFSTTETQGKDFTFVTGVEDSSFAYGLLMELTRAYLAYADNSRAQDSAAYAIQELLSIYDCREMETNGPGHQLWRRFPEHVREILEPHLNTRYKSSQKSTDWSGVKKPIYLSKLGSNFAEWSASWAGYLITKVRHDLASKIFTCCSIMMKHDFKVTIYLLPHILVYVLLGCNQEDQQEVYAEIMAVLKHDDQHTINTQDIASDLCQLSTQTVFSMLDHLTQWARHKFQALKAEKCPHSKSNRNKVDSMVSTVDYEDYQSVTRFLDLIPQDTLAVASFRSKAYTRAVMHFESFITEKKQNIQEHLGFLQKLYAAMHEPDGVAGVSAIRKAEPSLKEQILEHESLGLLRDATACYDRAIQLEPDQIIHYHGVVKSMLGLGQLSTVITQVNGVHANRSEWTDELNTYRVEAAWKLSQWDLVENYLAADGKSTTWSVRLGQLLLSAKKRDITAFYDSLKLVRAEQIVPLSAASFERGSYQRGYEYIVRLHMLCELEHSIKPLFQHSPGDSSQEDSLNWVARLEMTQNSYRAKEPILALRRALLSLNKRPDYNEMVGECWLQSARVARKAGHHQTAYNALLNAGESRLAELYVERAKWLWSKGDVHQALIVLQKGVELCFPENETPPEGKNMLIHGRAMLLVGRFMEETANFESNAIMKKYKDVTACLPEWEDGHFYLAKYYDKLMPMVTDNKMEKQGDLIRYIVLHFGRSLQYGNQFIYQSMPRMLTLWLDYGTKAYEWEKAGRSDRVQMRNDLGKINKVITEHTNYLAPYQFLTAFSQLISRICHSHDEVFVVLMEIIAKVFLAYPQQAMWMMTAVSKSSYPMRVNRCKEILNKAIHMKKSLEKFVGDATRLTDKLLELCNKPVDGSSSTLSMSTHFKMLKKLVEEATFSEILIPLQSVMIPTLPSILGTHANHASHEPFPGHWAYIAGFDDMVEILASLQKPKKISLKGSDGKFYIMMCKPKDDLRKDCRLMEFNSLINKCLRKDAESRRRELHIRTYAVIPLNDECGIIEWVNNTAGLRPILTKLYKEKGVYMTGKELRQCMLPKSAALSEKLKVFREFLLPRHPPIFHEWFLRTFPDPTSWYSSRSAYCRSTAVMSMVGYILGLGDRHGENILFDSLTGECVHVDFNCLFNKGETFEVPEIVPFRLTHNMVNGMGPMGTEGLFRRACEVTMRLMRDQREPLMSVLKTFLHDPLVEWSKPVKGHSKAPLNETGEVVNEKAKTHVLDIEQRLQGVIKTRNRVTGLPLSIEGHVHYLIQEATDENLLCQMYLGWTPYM

What was measured:
[1] = target: FLAG-H2AX-WT (wild-type histone H2AX) (human) (UniProt P16104); experiment: co-IP; HeLa cells co-expressing FLAG-H2AX (WT or K134A) and HA-SUV39H2, treated with 1 uM doxorubicin 48 h post transfection; lysed in CelLytic M; IP with anti-FLAG M2 agarose, washed in TBS pH 7.6; blotted with anti-phospho-ATM and anti-ATR
[2] = target: T1, Biotin-tagged unmethylated H2AX peptide (amino acids 121-142) (human); experiment: pull-down; biotin-tagged H2AX peptides mixed with whole-cell lysate of doxorubicin-treated HeLa cells in kinase buffer (50 mM HEPES pH 7.5, 50 mM KCl, 5 mM MgCl2, 10% glycerol, 1 mM ATP, 1 mM DTT), 90 min at 30 C; precipitated with Dynabeads M-280 streptavidin; blotted with anti-ATR and anti-phospho-ATM; only the target purified
T1 sequence (peptide, biotin on the N-terminus): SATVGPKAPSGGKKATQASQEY

[3] = target: T2, Biotin-tagged methylated H2AX peptide (K134 dimethylated, amino acids 121-142) (human); experiment: as above
T2 sequence (peptide, dimethyl-lysine at K134 ([me2K]); biotin on the N-terminus): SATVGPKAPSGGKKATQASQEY

binding [1]: binds
binding [2]: binds
binding [3]: binds
Substance: ATR (ataxia telangiectasia and Rad3-related) (from UniProt Q13535 1-2644) (enzyme)
